Experimental data reported in the supplement of paper PMC10849652.
The list shows a part of the results.

Protein sequences, listed by entry. Tags and fused reporters are not part of them. Lines headed by an entry give the natural chain unless they say otherwise; changes in a name come on top.
UniProt Q9H6Z4: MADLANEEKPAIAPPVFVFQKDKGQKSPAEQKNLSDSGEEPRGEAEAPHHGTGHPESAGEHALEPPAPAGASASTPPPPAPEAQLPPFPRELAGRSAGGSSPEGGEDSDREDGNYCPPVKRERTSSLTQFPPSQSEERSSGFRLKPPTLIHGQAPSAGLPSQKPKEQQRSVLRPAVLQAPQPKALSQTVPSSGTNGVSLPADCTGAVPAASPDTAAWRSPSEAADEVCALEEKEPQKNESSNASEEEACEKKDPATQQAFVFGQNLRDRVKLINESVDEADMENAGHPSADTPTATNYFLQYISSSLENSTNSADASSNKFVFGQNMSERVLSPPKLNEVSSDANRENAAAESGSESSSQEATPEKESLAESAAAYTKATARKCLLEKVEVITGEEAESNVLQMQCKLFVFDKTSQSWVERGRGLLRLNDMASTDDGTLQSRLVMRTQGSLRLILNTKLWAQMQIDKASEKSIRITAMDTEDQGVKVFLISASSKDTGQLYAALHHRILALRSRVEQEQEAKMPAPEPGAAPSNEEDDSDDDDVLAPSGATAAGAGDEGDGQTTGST
UniProt Q9H2T7: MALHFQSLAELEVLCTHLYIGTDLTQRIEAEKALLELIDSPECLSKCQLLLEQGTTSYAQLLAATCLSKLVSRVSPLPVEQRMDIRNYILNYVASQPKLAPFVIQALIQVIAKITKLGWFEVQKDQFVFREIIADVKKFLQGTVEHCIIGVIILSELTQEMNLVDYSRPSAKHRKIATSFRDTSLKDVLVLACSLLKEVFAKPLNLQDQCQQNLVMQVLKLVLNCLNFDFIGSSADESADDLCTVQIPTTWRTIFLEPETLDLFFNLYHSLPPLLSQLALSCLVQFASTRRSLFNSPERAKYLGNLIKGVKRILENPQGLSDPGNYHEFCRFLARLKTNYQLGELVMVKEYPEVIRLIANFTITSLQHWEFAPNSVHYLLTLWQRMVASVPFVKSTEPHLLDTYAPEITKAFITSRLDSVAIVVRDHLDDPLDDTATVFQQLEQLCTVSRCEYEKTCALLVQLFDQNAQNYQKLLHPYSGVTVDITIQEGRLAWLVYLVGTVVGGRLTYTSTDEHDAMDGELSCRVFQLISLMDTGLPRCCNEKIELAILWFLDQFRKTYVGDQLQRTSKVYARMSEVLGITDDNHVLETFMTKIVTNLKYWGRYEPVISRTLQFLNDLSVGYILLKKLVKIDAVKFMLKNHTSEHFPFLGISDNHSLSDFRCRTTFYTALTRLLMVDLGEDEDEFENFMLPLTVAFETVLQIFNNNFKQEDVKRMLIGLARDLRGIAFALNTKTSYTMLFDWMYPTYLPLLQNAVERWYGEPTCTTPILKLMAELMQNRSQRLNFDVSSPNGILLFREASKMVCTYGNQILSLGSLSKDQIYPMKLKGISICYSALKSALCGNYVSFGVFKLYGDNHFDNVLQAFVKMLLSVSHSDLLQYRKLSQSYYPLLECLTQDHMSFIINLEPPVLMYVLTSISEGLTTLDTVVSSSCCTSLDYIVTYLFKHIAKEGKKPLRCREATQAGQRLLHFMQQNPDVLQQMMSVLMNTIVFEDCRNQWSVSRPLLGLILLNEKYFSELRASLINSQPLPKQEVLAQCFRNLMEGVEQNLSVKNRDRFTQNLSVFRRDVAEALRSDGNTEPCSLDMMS
UniProt Q8WUD1: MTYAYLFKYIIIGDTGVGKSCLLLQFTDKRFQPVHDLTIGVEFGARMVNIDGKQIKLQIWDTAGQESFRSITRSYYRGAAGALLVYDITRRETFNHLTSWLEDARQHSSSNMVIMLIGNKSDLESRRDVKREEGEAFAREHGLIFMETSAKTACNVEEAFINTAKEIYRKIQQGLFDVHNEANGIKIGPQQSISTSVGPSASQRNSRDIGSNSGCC
UniProt Q8N0T1: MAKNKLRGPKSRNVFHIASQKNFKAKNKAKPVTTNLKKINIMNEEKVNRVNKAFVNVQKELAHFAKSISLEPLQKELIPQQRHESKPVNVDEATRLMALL
UniProt Q86X27: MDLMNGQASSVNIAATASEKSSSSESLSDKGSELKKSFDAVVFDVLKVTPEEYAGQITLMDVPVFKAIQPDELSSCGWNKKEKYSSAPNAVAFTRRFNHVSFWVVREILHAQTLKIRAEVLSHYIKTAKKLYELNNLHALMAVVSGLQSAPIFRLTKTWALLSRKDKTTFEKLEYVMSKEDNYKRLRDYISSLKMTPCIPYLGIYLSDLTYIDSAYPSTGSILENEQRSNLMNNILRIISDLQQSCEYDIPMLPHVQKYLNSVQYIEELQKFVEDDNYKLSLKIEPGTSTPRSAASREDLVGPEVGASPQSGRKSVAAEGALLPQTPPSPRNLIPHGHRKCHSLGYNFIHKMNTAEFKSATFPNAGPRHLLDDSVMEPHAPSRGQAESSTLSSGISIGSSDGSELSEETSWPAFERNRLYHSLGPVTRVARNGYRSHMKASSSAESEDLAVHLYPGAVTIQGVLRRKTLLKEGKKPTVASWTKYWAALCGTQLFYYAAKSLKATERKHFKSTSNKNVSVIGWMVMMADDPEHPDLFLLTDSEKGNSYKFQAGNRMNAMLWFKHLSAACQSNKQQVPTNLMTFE
UniProt Q5T160: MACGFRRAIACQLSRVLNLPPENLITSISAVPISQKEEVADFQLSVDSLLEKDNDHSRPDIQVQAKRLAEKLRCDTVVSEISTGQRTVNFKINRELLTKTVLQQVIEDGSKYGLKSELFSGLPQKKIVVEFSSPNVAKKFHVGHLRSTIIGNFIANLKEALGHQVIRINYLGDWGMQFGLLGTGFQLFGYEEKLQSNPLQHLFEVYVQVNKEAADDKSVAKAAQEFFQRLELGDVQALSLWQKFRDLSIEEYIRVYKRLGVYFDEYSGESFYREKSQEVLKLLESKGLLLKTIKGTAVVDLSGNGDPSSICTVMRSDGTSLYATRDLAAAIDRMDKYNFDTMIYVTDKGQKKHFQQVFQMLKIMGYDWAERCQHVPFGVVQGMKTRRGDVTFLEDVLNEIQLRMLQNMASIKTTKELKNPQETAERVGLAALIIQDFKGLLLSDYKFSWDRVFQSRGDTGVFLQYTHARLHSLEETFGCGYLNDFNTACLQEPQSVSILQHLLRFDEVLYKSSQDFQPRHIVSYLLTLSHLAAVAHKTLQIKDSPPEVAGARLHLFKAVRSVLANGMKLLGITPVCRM
UniProt Q6VN20, whole entry, looked up: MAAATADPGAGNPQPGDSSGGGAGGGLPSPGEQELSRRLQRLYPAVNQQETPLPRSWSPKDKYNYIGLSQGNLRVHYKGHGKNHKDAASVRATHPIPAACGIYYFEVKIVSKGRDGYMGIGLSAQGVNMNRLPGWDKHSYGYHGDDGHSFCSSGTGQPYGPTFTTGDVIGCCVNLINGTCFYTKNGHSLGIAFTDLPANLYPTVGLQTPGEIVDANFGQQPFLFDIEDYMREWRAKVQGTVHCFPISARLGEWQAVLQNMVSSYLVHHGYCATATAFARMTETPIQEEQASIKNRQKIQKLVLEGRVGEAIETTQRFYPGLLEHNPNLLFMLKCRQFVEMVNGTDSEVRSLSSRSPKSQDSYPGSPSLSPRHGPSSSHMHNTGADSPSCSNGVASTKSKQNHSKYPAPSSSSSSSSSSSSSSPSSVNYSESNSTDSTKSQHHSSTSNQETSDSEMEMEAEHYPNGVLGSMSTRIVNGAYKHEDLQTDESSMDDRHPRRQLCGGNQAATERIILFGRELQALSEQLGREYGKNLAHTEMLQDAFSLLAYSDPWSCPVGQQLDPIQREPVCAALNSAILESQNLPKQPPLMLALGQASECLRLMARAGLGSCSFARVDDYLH
UniProt Q9UL25: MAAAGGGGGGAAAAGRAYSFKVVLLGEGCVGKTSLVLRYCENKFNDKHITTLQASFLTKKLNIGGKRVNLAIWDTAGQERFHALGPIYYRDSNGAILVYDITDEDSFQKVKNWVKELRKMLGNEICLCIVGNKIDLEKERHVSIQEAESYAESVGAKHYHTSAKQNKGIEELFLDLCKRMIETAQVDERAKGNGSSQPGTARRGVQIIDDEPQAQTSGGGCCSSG
UniProt P62834: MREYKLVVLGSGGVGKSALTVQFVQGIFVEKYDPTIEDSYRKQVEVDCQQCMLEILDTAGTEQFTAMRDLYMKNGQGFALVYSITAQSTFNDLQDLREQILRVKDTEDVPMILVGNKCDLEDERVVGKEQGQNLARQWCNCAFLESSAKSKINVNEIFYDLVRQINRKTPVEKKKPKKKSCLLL
UniProt Q8WZA2: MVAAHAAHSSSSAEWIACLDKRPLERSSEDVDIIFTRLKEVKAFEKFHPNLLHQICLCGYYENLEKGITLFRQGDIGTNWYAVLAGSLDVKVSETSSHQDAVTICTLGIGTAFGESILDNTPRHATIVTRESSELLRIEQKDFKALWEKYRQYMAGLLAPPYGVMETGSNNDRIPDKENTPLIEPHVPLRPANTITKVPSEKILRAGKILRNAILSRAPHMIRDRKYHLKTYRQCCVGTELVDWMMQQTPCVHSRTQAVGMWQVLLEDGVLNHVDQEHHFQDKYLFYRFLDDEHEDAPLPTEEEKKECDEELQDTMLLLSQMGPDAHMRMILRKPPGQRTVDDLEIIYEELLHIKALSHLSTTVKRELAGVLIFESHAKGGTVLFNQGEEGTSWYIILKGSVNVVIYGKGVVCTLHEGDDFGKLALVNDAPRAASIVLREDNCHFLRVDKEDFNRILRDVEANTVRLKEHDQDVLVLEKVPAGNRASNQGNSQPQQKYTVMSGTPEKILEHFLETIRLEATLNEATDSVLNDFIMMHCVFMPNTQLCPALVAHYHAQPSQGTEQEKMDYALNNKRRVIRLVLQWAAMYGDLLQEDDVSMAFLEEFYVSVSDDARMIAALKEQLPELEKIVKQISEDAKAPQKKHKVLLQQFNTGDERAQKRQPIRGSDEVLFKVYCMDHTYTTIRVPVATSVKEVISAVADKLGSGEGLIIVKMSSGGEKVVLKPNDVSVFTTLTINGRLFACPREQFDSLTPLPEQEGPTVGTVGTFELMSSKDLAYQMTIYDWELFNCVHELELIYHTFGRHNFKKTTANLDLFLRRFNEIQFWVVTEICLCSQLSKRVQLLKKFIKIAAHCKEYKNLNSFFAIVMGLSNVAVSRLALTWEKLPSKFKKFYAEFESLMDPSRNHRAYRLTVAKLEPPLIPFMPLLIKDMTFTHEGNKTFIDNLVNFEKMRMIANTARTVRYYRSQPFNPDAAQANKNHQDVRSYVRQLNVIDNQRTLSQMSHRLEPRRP
UniProt P61224: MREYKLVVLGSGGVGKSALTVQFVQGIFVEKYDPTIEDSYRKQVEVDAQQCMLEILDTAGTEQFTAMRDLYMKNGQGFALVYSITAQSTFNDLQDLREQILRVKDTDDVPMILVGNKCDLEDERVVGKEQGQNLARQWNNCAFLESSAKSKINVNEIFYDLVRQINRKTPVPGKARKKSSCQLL
UniProt Q86YS6: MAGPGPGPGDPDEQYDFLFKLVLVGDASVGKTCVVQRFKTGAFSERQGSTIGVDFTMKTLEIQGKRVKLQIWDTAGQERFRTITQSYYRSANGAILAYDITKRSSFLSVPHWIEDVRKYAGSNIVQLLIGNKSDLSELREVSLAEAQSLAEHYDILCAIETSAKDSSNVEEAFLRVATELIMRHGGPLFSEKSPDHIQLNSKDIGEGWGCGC
UniProt Q15311: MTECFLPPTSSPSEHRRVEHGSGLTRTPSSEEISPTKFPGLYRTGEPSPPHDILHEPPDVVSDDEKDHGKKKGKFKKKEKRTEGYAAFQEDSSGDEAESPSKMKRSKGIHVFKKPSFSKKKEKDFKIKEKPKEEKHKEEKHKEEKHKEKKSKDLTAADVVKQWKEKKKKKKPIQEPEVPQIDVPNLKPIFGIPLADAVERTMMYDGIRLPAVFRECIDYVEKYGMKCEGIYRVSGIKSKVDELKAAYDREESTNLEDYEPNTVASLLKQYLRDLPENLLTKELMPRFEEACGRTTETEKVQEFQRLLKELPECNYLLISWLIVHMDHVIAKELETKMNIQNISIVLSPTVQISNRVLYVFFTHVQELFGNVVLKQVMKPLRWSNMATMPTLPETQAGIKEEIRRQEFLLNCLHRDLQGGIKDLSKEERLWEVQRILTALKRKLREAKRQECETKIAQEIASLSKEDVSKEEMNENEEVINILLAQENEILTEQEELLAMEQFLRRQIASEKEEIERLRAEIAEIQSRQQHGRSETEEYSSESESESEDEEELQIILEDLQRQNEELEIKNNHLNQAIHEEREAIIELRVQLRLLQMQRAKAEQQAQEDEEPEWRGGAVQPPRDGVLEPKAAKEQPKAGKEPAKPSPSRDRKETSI

Columns and labels:
Experiment in all cases: log2 fold change, soluble protein after heating vs DMSO (PISA); higher = thermal stabilisation; K562 cells, 10 uM, 30 min; active = over 0.2 and 3.5 SD of the protein, either way, in both replicates (recomputed)
erlotinib = compound: C#Cc1cccc(Nc2ncnc3cc(OCCOC)c(OCCOC)cc23)c1 [erlotinib]
Summary of the method: (§1)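 K562 cells at 2×10^6 cells/mL were treated with 10 μM compound for 30 min. Aliquots were heated for 3 min across 48°C-58°C, pooled, and extracted in PBS with 0.5% NP-40 at 4°C; soluble protein was the supernatant after 21,000xg for 90 min. Soluble protein was quantified by TMTpro 16plex LC-MS/MS with channel sums equalised, and reported as log2 fold change in thermal stability against DMSO controls, with values from duplicates.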

[1] = compound: C/C(=N\NC(=O)C1=CC(=CC=C1)S(=O)(=O)N2CCOCC2)/C3=C(C=CC(=C3)Cl)O
Summary of the method: as §1

[2] = compound: C1=CC(=C(C=C1Cl)C2=NC3=NC=CN=C3C(=N2)NC4=CC=NC=C4)F
Summary of the method: as §1

[3] = compound: C1=CC(=CC=C1C2=NC3=C(N2)C=C(C=C3)C(=O)N)OC4=CC=C(C=C4)Cl
Summary of the method: as §1

[4] = compound: C1=CC2=C(C=CC(=C2)/C=C\3/C(=O)NC(=NCC4=CC=CS4)S3)N=C1
Summary of the method: as §1

[5] = compound: C1=CC2=NC=CN=C2C=C1/C=C/3\C(=O)NC(=O)S3
Summary of the method: as §1

[6] = compound: C1=CC=C(C=C1)C2=NC(=C(N2)C3=CC=NC=C3)C4=CC(=C(C=C4)Cl)O
Summary of the method: as §1

[7] = compound: C1=CC=C2C(=C1)C3=NNC4=CC=CC(=C43)C2=O
Summary of the method: as §1

[8] = compound: C1CCN(C1)C(=O)NC2=CC=CC(=C2)NC3=NC=C(C(=N3)NCCC4=CN=CN4)Br
Summary of the method: as §1

[9] = compound: C1CN(CCC1(CC2=CC=C(C=C2)Cl)N)C3=NC=NC4=C3C=CN4
Summary of the method: as §1

Measured: log2 fold change

RANBP3 (UniProt Q9H6Z4)
inactive: erlotinib 0.004 | [1] 0.056 | [2] 0.065 | [3] -0.027 | [4] -0.033 | [5] -0.003 | [6] 0.04 | [7] 0.023 | [8] -0.021 | [9] 0.048

RANBP17 (UniProt Q9H2T7)
inactive: erlotinib -0.071 | [1] 0.091 | [2] 0.122 | [3] 0.039 | [4] -0.176 | [5] -0.065 | [6] 0.079 | [7] 0.282 | [8] -0.008 | [9] -0.116

RAB2B (UniProt Q8WUD1)
inactive: erlotinib -0.086 | [1] 0.012 | [2] 0.072 | [3] 0.034 | [4] -0.015 | [5] 0.022 | [6] -0.022 | [7] -0.015 | [8] -0.04 | [9] 0.03

RBIS (UniProt Q8N0T1)
inactive: erlotinib -0.051 | [1] 0.015 | [2] -0.038 | [3] 0.044 | [4] 0.007 | [5] 0.031 | [6] -0.121 | [7] -0.083 | [8] 0.037 | [9] -0.093

RALGPS2 (UniProt Q86X27)
inactive: erlotinib -0.43 | [1] -0.07 | [2] -0.321 | [3] 0.037 | [4] -0.079 | [5] 0.111 | [7] -0.012 | [8] -0.06 | [9] 0.154

RARS2 (UniProt Q5T160)
inactive: erlotinib 0.009 | [1] 0.057 | [2] 0.063 | [3] 0.029 | [4] 0.015 | [5] 0.014 | [6] 0.056 | [7] 0 | [8] 0.022 | [9] 0.038

RANBP10 (UniProt Q6VN20)
inactive: erlotinib -0.217 | [1] -0.057 | [2] -0.003 | [3] 0.137 | [4] 0.032 | [5] 0.054 | [6] -0.109 | [7] -0.066 | [8] -0.045 | [9] -0.078

Fetched one by one from the entries so far (2):
RARS2 (UniProt Q5T160)
inactive: erlotinib 0.009 | [1] 0.057 | [2] 0.063 | [3] 0.029 | [4] 0.015 | [5] 0.014 | [6] 0.056 | [7] 0 | [8] 0.022 | [9] 0.038

RANBP10 (UniProt Q6VN20)
inactive: erlotinib -0.217 | [1] -0.057 | [2] -0.003 | [3] 0.137 | [4] 0.032 | [5] 0.054 | [6] -0.109 | [7] -0.066 | [8] -0.045 | [9] -0.078

Following part

RAB21 (UniProt Q9UL25)
inactive: erlotinib 0.003 | [1] 0.048 | [2] 0.053 | [3] 0.025 | [4] 0.022 | [5] 0.03 | [6] -0.025 | [7] -0.023 | [8] -0.047 | [9] 0.024

RAP1A (UniProt P62834)
inactive: erlotinib -0.007 | [1] 0.017 | [2] 0.058 | [3] 0.02 | [4] -0.051 | [5] -0.033 | [6] 0.165 | [7] 0.007 | [8] -0.007 | [9] 0.102

RAPGEF4 (UniProt Q8WZA2)
inactive: erlotinib 0.271 | [2] 0.057 | [3] 0.053 | [4] 0.19 | [5] 0.029 | [7] -0.014 | [8] -0.038 | [9] 0.18
active: [1] -0.636

RAP1B (UniProt P61224)
inactive: erlotinib -0.016 | [1] 0.046 | [2] 0.111 | [3] -0.015 | [4] -0.065 | [5] 0.045 | [6] -0.01 | [7] -0.016 | [8] -0.049 | [9] 0.05

RAB43 (UniProt Q86YS6)
inactive: erlotinib 0.065 | [1] 0.047 | [2] 0.032 | [3] -0.01 | [4] 0.071 | [5] 0.016 | [6] -0.049 | [7] -0.007 | [8] 0.011 | [9] 0.093

RALBP1 (UniProt Q15311)
inactive: [1] -0.045 | [2] -0.216 | [4] 0.012 | [7] -0.007 | [8] 0.253 | [9] -0.119
